# In all, about 33,000 sequences were measured (“E-score (-0.5 to 0.5)”: median about -0.015, highest 2% from about 0.3 on). Some of the results follow.
# Target: T1, Abf1 (UniProt P14164)
# T1 sequence: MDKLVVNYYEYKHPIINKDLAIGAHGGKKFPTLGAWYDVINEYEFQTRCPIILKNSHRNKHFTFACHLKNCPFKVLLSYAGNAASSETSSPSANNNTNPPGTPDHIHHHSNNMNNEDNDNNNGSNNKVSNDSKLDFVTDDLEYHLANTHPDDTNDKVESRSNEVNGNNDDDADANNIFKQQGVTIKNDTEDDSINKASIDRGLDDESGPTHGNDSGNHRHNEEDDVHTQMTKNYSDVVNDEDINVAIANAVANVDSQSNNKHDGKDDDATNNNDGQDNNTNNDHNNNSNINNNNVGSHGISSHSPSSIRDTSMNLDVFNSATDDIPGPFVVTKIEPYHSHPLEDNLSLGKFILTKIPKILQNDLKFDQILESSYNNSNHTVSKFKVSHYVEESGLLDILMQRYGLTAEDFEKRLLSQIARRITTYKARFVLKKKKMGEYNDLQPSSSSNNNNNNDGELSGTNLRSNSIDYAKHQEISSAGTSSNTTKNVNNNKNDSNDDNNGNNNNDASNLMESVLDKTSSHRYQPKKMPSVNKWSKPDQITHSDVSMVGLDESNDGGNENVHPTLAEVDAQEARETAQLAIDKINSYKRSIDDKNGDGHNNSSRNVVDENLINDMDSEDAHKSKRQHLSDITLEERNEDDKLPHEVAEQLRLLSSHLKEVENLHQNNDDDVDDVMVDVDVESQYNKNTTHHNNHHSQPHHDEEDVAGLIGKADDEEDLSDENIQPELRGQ
# Assay: PBM E-score (8-mer binding enrichment) (E-score (-0.5 to 0.5)); higher = stronger / more preferred TF binding
# Conditions: protein concentration: 200 nM; construct: GST-full length
# Method in brief: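 For each ungapped eight-base word taken together with its reverse complement, the Universal PBM Analysis Suite assigned an E-score. Binding data came from GST-tagged yeast transcription factors, applied at about 100-200 nM, on universal all-10-mer Agilent arrays made double-stranded by primer extension. Fluorescent anti-GST marked bound protein, and scans were normalised with masliner.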
row,Sequence,PBM E-score
1,GCCTATAC,-0.203
2,AGATTCCT,-0.125
3,ACGAACCA,0.144
4,CCATTTGC,-0.0158
5,GCATCTGA,-0.216
6,AAACGATT,0.292
7,CAGCGAGG,-0.204
8,CAAGTAAG,-0.0165
9,TGGAACCA,-0.0857
10,CGGCAGAA,-0.111
11,GGTCACGA,0.27
12,GCAGTGCC,-0.209
13,ATATGTCA,0.289
14,CAAGGTGA,0.132
15,ATAACCGA,0.0277
16,CGCCGAAC,0.0673
17,GTTTGCGA,0.0411
18,ATGCGTAC,0.119
19,TCACAAGA,0.0608
20,CGCAGCCA,-0.157
21,ATAGCTCG,-0.0227
22,CTACCAGA,-0.193
23,ACGACACA,0.275
24,ATAGCCAT,0.0439
25,AGTTGGGA,-0.218

row,Sequence,PBM E-score
1,GAGTGAGA,0.0215
2,ATTCGACC,-0.0563
3,CGCGTTCC,-0.231
4,TGTAATAA,0.203
5,CTGATGAA,0.0318
6,AACCTGTC,-0.175
7,TACCGCCA,0.0184
8,CTCAAAAG,-0.0587
9,CGTATGCC,-0.0284
10,GACATAGA,0.0851
11,GTATCCAC,0.0115
12,TTAGCAAA,-0.175
13,AAAGTGCG,-0.105
14,GCGCCAGA,-0.231
15,TCCATTAA,0.0318
16,CAATTGGC,0.00835
17,CCGGAGCA,-0.291
18,ACCGAACA,-0.0253
19,GCTTGTAC,0.0867
20,ATTCATAG,0.126
21,AGAGTTAG,-0.217
22,CTGTATAA,-0.0403
23,AGCTTGCG,-0.123
24,AATGTAGA,-0.0277
25,AGCTCTGC,-0.361

# Copied from the list:
# AGAGTTAG – PBM E-score: -0.217
# AAACGATT – PBM E-score: 0.292
# TCCATTAA – PBM E-score: 0.0318
# CGCCGAAC – PBM E-score: 0.0673
# CTCAAAAG – PBM E-score: -0.0587
# CAAGGTGA – PBM E-score: 0.132

# Further entries.

row,Sequence,PBM E-score
1,TGTACAAA,0.0674
2,AAATTAAT,0.0897
3,GCCTTAGA,-0.0193
4,CCTACACC,-0.256
5,CATATGGA,0.127
6,CGCCTATA,-0.0896
7,GAGCCGAC,-0.241
8,TGACGCCA,-0.136
9,CTGAGAAG,-0.161
10,ATTGCCCA,-0.0404
11,AGTCATCG,0.267
12,TCGTGTAA,0.343
13,ACTAACCC,-0.153
14,GACGGAGA,-0.0216
15,CTTACTAA,0.172
16,GATGAGAC,0.104
17,CGGGTCAG,-0.173
18,CGCGAAAG,0.0686
19,CTGCCTTC,-0.269
20,GCTCACCC,-0.155
21,AACATCAT,0.309
22,AAGGCCAA,-0.0935
23,AAGCCCAT,-0.0799
24,AGACCTAT,-0.0191
25,CCTATTGA,-0.0303

row,Sequence,PBM E-score
1,AACAAAAG,0.168
2,GAGCTAGA,-0.11
3,CATCCAGC,-0.0905
4,CCATGGCC,-0.271
5,AGGCGTCC,-0.259
6,GGCGGAAC,-0.0975
7,CTCTGAGA,-0.0384
8,GACTCTTA,-0.0241
9,CCCTGAAC,0.17
10,TACGATCA,0.208
11,GCGCAAGA,-0.0185
12,ACAATCAT,0.0833
13,AAGCGAAG,0.133
14,ATGTCTTG,0.0293
15,AGTGAATG,0.0814
16,ATAGCGCA,-0.0427
17,CGTGTATA,0.153
18,CCTAAGCC,-0.317
19,CAAACCAG,-0.156
20,CCCGAACC,-0.21
21,CCTTATAC,0.172
22,CAGTCACG,0.0751
23,CCTGGTAG,-0.226
24,GGTAACAC,-0.0308
25,CCGGTGCG,-0.00687

row,Sequence,PBM E-score
1,CAGTGGTC,-0.0168
2,GGTCCTGA,-0.0764
3,CACACCGG,-0.0728
4,CACACGCA,-0.0899
5,CTGCTGGC,-0.25
6,AAATATTT,0.174
7,CCACTCTA,-0.03
8,AATTTTCA,0.11
9,GACACTCA,-0.0679
10,ACCGTCCG,-0.00107
11,ACAGCTTG,-0.117
12,ACTCCACT,-0.0183
13,CTGCCAGA,-0.229
14,ATATACCG,0.268
15,CGCAGCTA,-0.0788
16,AGTACACC,-0.197
17,CTTTCACC,0.0336
18,TAATGCGA,0.186
19,ATGTAATA,0.121
20,TTGAGAAA,0.0703
21,GCGGACCA,0.119
22,CTGTGGAA,-0.0344
23,CAAGATCG,0.117
24,CTGTAAGC,-0.00055
25,GGTGCATA,-0.0553

row,Sequence,PBM E-score
1,GCTAATCC,0.00615
2,CACTGGGC,-0.0686
3,AACGTCGC,0.146
4,AAGCCGGA,-0.0839
5,CTTGAACA,0.0646
6,CAAGAGCC,-0.132
7,AATCCGGT,0.0045
8,CGATGGCG,-0.0766
9,CAGGGGAC,-0.279
10,ACCTCCCG,-0.12
11,TATCTGCA,0.0471
12,CTTCACCC,0.0775
13,AAATTCTT,-0.0436
14,TACAAGGA,-0.0801
15,GGCTCCTA,-0.247
16,CAGCCCGC,-0.361
17,GTTACGAA,0.208
18,ACGTGCAA,0.21
19,GAAACCAC,-0.124
20,TGCGCTAA,0.0633
21,GCCGTTCC,0.174
22,CAAACACG,0.125
23,GACTAGAC,-0.132
24,ACGCTGCC,-0.16
25,ATTGGCAG,-0.377

row,Sequence,PBM E-score
1,CAGCAAAG,-0.128
2,TATCTTGA,0.2
3,GTCTCGAA,-0.0979
4,AGTCTCTC,-0.278
5,AAACAATA,0.147
6,GTACGTAA,0.343
7,AACAGAGT,-0.144
8,AATGCGAA,-0.09
9,GATGGATA,0.0769
10,TAAGGCGA,0.039
11,ACCTTACT,-0.0612
12,CCCAAGAA,-0.0325
13,ATAACTCG,-0.0346
14,GTTATAAC,-0.11
15,GGTAAACC,-0.197
16,AATCCAAT,0.149
17,GCCATAAA,-0.0869
18,ACCACCGG,-0.163
19,ACTCACTC,-0.0558
20,CAGCAAGC,-0.15
21,CACCACTC,-0.0646
22,GTCACGCA,0.175
